Measured values as given in PubChem BioAssay (Tox21).
“And” between values parts separate entries of the source, which are not always exact repeats. Equal entries are not always repeated. This list was built around the results that the source calls inconclusive (neither active nor inactive); the mix of calls is not that of the screen. For some assays here: Potencies of inconclusive entries are doubtful fits and often do not repeat. The source made the active and inactive calls. Unless noted, the call rests on the fitted dose curve.

The chains behind the UniProt entries cited, without tags or fusion partners. Where a name states a change or a piece, a line headed by the entry shows the natural chain unless it says otherwise.
UniProt P14416, whole entry, looked up: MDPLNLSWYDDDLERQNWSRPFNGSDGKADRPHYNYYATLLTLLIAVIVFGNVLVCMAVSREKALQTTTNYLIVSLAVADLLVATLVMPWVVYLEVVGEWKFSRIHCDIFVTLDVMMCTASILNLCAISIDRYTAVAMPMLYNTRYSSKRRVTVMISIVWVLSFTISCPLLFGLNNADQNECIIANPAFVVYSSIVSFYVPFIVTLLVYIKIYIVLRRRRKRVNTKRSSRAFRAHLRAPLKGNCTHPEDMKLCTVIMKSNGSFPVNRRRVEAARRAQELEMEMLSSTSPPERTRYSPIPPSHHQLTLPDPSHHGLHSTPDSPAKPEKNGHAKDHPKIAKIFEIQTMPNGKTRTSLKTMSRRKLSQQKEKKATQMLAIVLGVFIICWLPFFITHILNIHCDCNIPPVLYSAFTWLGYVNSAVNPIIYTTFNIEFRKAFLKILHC
UniProt P28223, whole entry, looked up: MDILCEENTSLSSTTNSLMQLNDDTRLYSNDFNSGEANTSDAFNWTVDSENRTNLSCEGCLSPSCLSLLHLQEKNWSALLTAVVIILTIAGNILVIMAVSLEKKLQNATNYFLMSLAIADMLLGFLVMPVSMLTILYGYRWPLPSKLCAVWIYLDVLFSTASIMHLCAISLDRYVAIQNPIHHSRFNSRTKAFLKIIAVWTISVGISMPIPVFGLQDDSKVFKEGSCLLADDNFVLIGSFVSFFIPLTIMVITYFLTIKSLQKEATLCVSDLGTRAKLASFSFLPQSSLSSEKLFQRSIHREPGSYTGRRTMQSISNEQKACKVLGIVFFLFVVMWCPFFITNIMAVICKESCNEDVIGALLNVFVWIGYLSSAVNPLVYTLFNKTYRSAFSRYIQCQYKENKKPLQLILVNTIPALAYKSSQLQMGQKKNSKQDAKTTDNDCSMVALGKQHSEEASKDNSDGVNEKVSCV
UniProt P11229: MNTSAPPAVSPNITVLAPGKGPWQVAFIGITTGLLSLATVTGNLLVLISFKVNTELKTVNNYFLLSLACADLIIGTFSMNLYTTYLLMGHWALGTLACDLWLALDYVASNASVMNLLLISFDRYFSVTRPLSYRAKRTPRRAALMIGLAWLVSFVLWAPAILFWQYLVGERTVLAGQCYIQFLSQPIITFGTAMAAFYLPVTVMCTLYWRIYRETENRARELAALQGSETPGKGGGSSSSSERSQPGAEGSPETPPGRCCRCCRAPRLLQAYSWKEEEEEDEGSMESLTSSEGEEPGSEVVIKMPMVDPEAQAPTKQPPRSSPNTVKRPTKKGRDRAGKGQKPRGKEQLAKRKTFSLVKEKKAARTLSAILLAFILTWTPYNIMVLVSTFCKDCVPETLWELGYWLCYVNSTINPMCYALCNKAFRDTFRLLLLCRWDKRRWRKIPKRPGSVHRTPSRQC

Experiments:
[1] = p53 small molecule agonists, cell-based qHTS assay: qHTS cell viability counter screen (AID 1963581); further: nearly all actives have a fitted effect of over 45% in size; further: potency means the concentration at half of the fitted maximal effect
In short: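 In the same plates used for the p53 bla reporter, HCT-116 cells given compounds for 16 h at 37 C received CellTiter-Glo; luminescence was recorded 30 min later at room temperature.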

[2] = p53 small molecule agonists, cell-based qHTS assay with rat liver microsomes: qHTS cell viability counter screen (AID 1963580); further: nearly all actives have a fitted effect of over 45% in size; further: potency means the concentration at half of the fitted maximal effect
In short: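 In HCT-116 cells carrying a p53 response element-bla reporter, compounds were metabolically activated in situ by rat liver microsomes with NADPH over 16 h. Cell ATP content then served as the cytotoxicity measure.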

[3] = biological target: Beta-2 adrenergic receptor (Homo sapiens) (UniProt P07550); test: Adrenergic beta2 receptor (ADRB2) small molecule agonists, cell-based qHTS assay (AID 1963593); settings: CHO-ADRB2 cells, cAMP HTRF, 30 min; activation: at 92.4 µM (top of the series) unless noted; further: potency means the concentration at half of the fitted maximal effect;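 on activation: CHO cells stably overexpressing human ADRB2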
In short: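 CHO cells stably over-expressing ADRB2 were plated overnight at 37C, then dosed with compounds plus a stimulation mix containing 100uM IBMX and 25uM Ro-20-1724 for 0.5hr at room temperature. cAMP was measured by HTRF competition, 1hr.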

[4] = biological target: D(2) dopamine receptor (Homo sapiens) (UniProt P14416); test: Dopamine D2 receptor (DRD2) small molecule agonists, cell-based qHTS assay (AID 1963594); settings: HEK293-DRD2 cAMP HTRF, agonist mode, 30 min; activation: at 92.4 µM (top of the series) unless noted; further: nearly all actives have a fitted effect of over 35% in size; further: potency means the concentration at half of the fitted maximal effect
In short: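 HEK293 cells stably expressing DRD2 were cultured 24 h at 37 C, then given Ro20-1724 (0.1 mM final) and compounds for 10 min at room temperature. NKH477 (200nM) was then added for 30 min. cAMP was read by HTRF.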

[5] = biological target: 5-hydroxytryptamine receptor 2A (Homo sapiens) (UniProt P28223); test: 5-hydroxytryptamine receptor 2A (HTR2A) small molecule antagonists, cell-based qHTS assay (AID 1963586); further: nearly all actives have a fitted effect of over 45% in size; further: potency means the concentration at half of the fitted maximal effect
In short: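 Antagonist-mode intracellular calcium assay: DOI (4 nM) added after 5 min compound pre-incubation at room temperature to dye-loaded HTR2A-CHO cells. Fluorescence followed for 3 min, sampled every second.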

[6] = p53 small molecule agonists, cell-based qHTS assay (AID 1963582; active means well fitted activation curve with a large enough effect in the signal ratio in the repeat runs, not every such curve was filed as active; inconclusive means weak or mixed curves; the % refers to the signal ratio; further: potency means the concentration at half of the fitted maximal effect); settings: HCT-116 p53RE-bla reporter, beta-lactamase FRET ratio, 16 h; activation: at 66 µM (top of the series) unless noted
In short: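 Compounds are pin-transferred in DMSO onto p53RE-bla cells and incubated 16 h at 37 C. The B/G FRET beta-lactamase substrate is then applied for 2 h at RT and fluorescence recorded.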

[7] = biological target: 5-hydroxytryptamine receptor 2A (Homo sapiens) (UniProt P28223); test: 5-hydroxytryptamine receptor 2A (HTR2A) small molecule agonists, cell-based qHTS assay (AID 1963587); settings: HTR2A-CHO cells, calcium flux fluorescence, agonist mode; activation: at 76.8 µM (top of the series); further: nearly all actives have a fitted effect of over 30% in size
In short: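 HTR2A-CHO cells, plated 18 h at 37 C/5% CO2, dye-loaded 1 h at 37 C; compounds in DMSO added by pin tool (agonist mode). Intracellular calcium flux read as kinetic fluorescence on FDSS over 2 min at 1 s intervals.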

[8] = cAMP Responsive Elements (CRE) small molecule agonists, cell-based qHTS assay (AID 1963590); settings: CRE-bla HEK293T, beta-lactamase FRET ratio, 3 h; activation: at 92.4 µM (top of the series) unless noted; further: potency means the concentration at half of the fitted maximal effect
In short: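 Cell line: CRE-bla HEK 293T; medium DMEM/10% dialyzed FBS/0.1 mM NEAA/1 mM pyruvate/25 mM HEPES; 3 h compound exposure; beta-lactamase FRET readout after 2 h substrate loading at RT.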

[9] = cAMP Responsive Elements (CRE) small molecule antagonists, cell-based qHTS assay (AID 1963591; active means well fitted inhibition curve with a large enough effect in the signal ratio in the repeat runs, not every such curve was filed as active; inconclusive means weak or mixed curves, or effect the other way; the % refers to the signal ratio; further: potency means the concentration at half of the fitted maximal effect); settings: CRE-bla HEK293T, beta-lactamase FRET ratio; activity change, negative = inhibition: at 92.4 µM (top of the series) unless noted
In short: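 Inhibition of NKH477-driven (0.25 uM final) CRE-beta-lactamase signal in HEK293T cells, 3 h compound exposure at 37 °C, detected by FRET substrate fluorescence.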

[10] = biological target: D(2) dopamine receptor (Homo sapiens) (UniProt P14416); test: Dopamine D2 receptor (DRD2) small molecule antagonists, cell-based qHTS assay (AID 1963595; active means well fitted inhibition curve with a large enough effect in the signal ratio in the repeat runs, with a control signal flat; inconclusive means weak or mixed curves, or effect the other way; the % refers to the signal ratio); settings: HEK293-DRD2 cAMP HTRF antagonist mode; activity change, negative = inhibition: at 92.4 µM (top of the series) unless noted
In short: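 HEK293 cells stably expressing DRD2 were preincubated with 0.1 mM Ro20-1724, then with compound for 10 min at room temperature. Cells were stimulated with 200 nM NKH477 plus 12 nM quinpirole for 30 min, and cAMP was read by HTRF.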

[11] = biological target: Muscarinic acetylcholine receptor M1 (Homo sapiens) (UniProt P11229); test: Cholinergic receptor muscarinic 1 (CHRM1) small molecule antagonists, cell-based qHTS assay (AID 1963588); further: nearly all actives have a fitted effect of over 40% in size; further: potency means the concentration at half of the fitted maximal effect
In short: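 CHRM1-CHO calcium-flux assay, antagonist mode. Cells were seeded 18 h, dye-loaded 1 h at 37 C and given compound for 5 min at RT, then acetylcholine was added at 50nM. FDSS fluorescence was read 3 min; 15 concentrations, three runs.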
On the % scale 0 is the no-effect control and ±100 the full control effect.

CCC1(c2cnc[nH]2)Cc2ccccc2C1
Potency [1]: inactive

NC(=O)OCCCc1ccccc1
Potency [2]: inactive | Potency [3]: inactive | activation [4]: inconclusive: -4.79% [at 42.5 µM]

Cc1ccc(CCl)cc1
Potency [1]: inactive | Potency [5]: inactive

ClCc1ccccn1
Potency [1]: inactive

CO/N=C(\C(=O)OC)c1ccccc1CO/N=C(\C)c1cccc(C(F)(F)F)c1
Potency [1]: inactive | Potency [6]: inconclusive: 3.63 µM [activator] | Potency [7]: inactive | Potency [8]: inconclusive: 68.6 µM [fluorescent, partial curve, poor fit] | Potency [3]: inconclusive: 0.0344 µM [inhibitor, single point] | activation [4]: inconclusive: -11.4%

Nc1c(Cl)c(Cl)nc(C(=O)O)c1Cl
Potency [1]: inconclusive: 1.8 µM [rising, full curve, poor fit] | Potency [6]: inconclusive: 14.3 µM [rising, full curve] and inconclusive: 7.48 µM [rising, full curve] | Potency [9]: inconclusive: 15.2 µM [fluorescent] | activity change, negative = inhibition [9]: inconclusive: 10.3% | Potency [3]: inconclusive: 76.1 µM [inhibitor, partial curve, poor fit] and inconclusive: 70.7 µM [inhibitor, single point] | activation [3]: inconclusive: 16.8% | Potency [4]: inactive

Brc1c(Br)c(Br)c(Oc2c(Br)c(Br)c(Br)c(Br)c2Br)c(Br)c1Br
activity change, negative = cytotoxicity [1]: inactive: 13.8% [at 13.5 µM]

O=C(NC(O)C(Cl)(Cl)Cl)NC(O)C(Cl)(Cl)Cl (stereo unspecified)
Potency [2]: inactive | Potency [3]: inactive

NC1(c2ccccc2)CCCCC1
Potency [1]: inactive

CNC(=S)S
Potency [1]: inconclusive: 19.9 µM [cytotoxic, single point]

CNC(=O)CSP(=O)(OC)OC
Potency [1]: inconclusive: 20.4 µM [rising, single point]

O=C(N[C@H]1N=C(c2ccccc2F)c2cccc3c2N(CC3)C1=O)c1cc2ccccc2[nH]1
Potency [1]: inconclusive: 1.58 µM [rising, partial curve] | Potency [6]: inconclusive: 0.397 µM [rising, full curve] | Potency [8]: inactive | Potency [3]: inactive | Potency [4]: active: 8.74 µM

CN1C(=O)CN=C(c2ccccc2)c2cc(Cl)ccc21
Potency [1]: inactive | Potency [6]: inconclusive: 32.9 µM [rising, partial curve, poor fit] | Potency [8]: inconclusive: 62.1 µM [activator] | Potency [9]: inactive | Potency [3]: inconclusive: 7.5 µM [inhibitor, partial curve, poor fit] | activation [3]: inconclusive: -255% | Potency [10]: inactive

CN1C[C@@H](NS(=O)(=O)N(C)C)C[C@@H]2c3cccc4c3c(cn4C)C[C@H]21
Potency [1]: inconclusive: 0.0446 µM [rising, partial curve, poor fit] | Potency [5]: active: 0.13 µM | Potency [7]: inactive | Potency [8]: inactive | activity change, negative = inhibition [9]: inconclusive: 20.5% [at 42.4 µM] | Potency [3]: inconclusive: 26.6 µM [inhibitor, partial curve] | Potency [4]: active: 3.76 µM

CCOC(=O)NC(=S)Nc1ccccc1NC(=S)NC(=O)OCC
Potency [1]: inconclusive: 25.7 µM [rising, partial curve, poor fit] | Potency [6]: inconclusive: 45.8 µM [activator, single point] | Potency [8]: inconclusive: 61.1 µM [rising, partial curve, poor fit] | Potency [9]: inconclusive: 27.3 µM [activator, partial curve, poor fit]

CC(C)=CC1C(C(=O)OCN2C(=O)C3=C(CCCC3)C2=O)C1(C)C (stereo unspecified)
Potency [1]: inconclusive: 0.162 µM [cytotoxic, single point] | Potency [6]: inconclusive: 22.3 µM [rising, single point] | Potency [11]: inconclusive: 4.21 µM [inhibitor, full curve] | Potency [8]: inconclusive: 61.1 µM [rising, partial curve, poor fit] and inconclusive: 33.5 µM [rising, partial curve, poor fit] | Potency [9]: inconclusive: 48.6 µM [activator, partial curve] | Potency [4]: inconclusive: 68.6 µM [falling, single point] | activity change, negative = inhibition [10]: inconclusive: -15.2% [at 42.5 µM]

C#CC(O)(C=CCl)CC (stereo unspecified)
Potency [1]: inconclusive: 4.46 µM [cytotoxic, partial curve, poor fit] | Potency [6]: inactive | Potency [5]: inconclusive: 20.5 µM [inhibitor, partial curve, poor fit] | Potency [3]: inactive

CC(C)CC(N(C)C)C1(c2ccc(Cl)cc2)CCC1 (stereo unspecified)
Potency [2]: active: 0.793 µM | activation [3]: inconclusive: 50.3% [at 42.5 µM]

Cl/C=C\Cl
Potency [1]: inconclusive: 17.1 µM [rising, partial curve, poor fit] | Potency [6]: inconclusive: 2.42 µM [falling, partial curve, poor fit] | Potency [11]: inactive | activation [3]: inconclusive: 4.4%

CCOC(=O)COc1cc(-c2nn(C)c(OC(F)F)c2Cl)c(F)cc1Cl
Potency [1]: inactive | Potency [6]: inconclusive: 0.408 µM [falling, single point] | Potency [8]: inconclusive: 68.6 µM [rising, partial curve] | activity change, negative = inhibition [9]: inconclusive: 7.01% | activation [3]: inconclusive: -17.4% | Potency [4]: inconclusive: 61.1 µM [rising, partial curve] | Potency [10]: inactive

NC(=O)C(Cl)Cl
Potency [1]: inactive | Potency [5]: inconclusive: 16.7 µM [inhibitor, single point]

COC(=O)C(C)N(C(=O)Cc1ccccc1)c1c(C)cccc1C (stereo unspecified)
Potency [1]: inactive | Potency [6]: inconclusive: 9.13 µM [rising, full curve] | Potency [8]: inconclusive: 30.6 µM [rising, partial curve] | Potency [9]: inconclusive: 48.6 µM [activator, partial curve, poor fit] | Potency [3]: inconclusive: 77 µM [inhibitor, single point]

CCCCCCCCCC(=O)O[C@H]1CC[C@H]2[C@@H]3CCC4=CC(=O)CC[C@@H]4[C@H]3CC[C@]12C
Potency [1]: inconclusive: 22.3 µM [rising, single point] | Potency [6]: inconclusive: 22.3 µM [activator, single point] | Potency [3]: inactive | Potency [4]: inactive

CC(=O)OCC1=C(C(=O)O)N2C(=O)[C@@H](N)[C@H]2SC1
Potency [1]: inconclusive: 0.0274 µM [rising, partial curve, poor fit] | activation [6]: inactive: 1.4% [at 13.5 µM]
